From article PMC12283963

Sequences of proteins named here, by UniProt entry; tags and fusion partners are left off. Residues count along the entry.
UniProt Q8C255, residues 32-459: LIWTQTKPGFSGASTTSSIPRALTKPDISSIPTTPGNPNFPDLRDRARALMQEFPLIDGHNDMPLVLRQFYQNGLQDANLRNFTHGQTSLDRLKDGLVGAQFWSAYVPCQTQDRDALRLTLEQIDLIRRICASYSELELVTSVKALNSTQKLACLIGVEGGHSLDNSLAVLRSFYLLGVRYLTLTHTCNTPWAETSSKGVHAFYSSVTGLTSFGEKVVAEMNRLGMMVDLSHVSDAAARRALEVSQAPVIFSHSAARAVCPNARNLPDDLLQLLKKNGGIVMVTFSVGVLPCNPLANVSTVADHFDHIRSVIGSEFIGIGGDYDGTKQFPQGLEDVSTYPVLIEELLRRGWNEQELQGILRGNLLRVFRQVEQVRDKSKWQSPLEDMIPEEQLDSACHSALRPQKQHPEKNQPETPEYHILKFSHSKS
UniProt P63280: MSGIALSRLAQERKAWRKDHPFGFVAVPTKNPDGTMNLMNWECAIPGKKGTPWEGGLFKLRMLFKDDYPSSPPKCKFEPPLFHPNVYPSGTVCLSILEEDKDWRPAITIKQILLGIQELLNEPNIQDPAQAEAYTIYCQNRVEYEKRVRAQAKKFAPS
UniProt P08152: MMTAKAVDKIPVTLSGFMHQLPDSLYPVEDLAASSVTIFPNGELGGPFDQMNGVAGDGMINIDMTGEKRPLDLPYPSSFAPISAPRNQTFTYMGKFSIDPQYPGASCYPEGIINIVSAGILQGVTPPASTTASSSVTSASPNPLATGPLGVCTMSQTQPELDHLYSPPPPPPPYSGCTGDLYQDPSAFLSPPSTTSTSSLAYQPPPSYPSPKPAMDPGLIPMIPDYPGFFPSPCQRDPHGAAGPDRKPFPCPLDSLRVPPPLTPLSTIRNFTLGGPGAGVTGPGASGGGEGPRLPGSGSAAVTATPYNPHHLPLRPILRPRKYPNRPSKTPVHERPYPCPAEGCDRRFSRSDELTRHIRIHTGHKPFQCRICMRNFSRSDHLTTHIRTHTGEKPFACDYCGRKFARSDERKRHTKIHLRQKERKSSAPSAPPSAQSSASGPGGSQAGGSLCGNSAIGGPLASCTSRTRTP
UniProt Q80TP3: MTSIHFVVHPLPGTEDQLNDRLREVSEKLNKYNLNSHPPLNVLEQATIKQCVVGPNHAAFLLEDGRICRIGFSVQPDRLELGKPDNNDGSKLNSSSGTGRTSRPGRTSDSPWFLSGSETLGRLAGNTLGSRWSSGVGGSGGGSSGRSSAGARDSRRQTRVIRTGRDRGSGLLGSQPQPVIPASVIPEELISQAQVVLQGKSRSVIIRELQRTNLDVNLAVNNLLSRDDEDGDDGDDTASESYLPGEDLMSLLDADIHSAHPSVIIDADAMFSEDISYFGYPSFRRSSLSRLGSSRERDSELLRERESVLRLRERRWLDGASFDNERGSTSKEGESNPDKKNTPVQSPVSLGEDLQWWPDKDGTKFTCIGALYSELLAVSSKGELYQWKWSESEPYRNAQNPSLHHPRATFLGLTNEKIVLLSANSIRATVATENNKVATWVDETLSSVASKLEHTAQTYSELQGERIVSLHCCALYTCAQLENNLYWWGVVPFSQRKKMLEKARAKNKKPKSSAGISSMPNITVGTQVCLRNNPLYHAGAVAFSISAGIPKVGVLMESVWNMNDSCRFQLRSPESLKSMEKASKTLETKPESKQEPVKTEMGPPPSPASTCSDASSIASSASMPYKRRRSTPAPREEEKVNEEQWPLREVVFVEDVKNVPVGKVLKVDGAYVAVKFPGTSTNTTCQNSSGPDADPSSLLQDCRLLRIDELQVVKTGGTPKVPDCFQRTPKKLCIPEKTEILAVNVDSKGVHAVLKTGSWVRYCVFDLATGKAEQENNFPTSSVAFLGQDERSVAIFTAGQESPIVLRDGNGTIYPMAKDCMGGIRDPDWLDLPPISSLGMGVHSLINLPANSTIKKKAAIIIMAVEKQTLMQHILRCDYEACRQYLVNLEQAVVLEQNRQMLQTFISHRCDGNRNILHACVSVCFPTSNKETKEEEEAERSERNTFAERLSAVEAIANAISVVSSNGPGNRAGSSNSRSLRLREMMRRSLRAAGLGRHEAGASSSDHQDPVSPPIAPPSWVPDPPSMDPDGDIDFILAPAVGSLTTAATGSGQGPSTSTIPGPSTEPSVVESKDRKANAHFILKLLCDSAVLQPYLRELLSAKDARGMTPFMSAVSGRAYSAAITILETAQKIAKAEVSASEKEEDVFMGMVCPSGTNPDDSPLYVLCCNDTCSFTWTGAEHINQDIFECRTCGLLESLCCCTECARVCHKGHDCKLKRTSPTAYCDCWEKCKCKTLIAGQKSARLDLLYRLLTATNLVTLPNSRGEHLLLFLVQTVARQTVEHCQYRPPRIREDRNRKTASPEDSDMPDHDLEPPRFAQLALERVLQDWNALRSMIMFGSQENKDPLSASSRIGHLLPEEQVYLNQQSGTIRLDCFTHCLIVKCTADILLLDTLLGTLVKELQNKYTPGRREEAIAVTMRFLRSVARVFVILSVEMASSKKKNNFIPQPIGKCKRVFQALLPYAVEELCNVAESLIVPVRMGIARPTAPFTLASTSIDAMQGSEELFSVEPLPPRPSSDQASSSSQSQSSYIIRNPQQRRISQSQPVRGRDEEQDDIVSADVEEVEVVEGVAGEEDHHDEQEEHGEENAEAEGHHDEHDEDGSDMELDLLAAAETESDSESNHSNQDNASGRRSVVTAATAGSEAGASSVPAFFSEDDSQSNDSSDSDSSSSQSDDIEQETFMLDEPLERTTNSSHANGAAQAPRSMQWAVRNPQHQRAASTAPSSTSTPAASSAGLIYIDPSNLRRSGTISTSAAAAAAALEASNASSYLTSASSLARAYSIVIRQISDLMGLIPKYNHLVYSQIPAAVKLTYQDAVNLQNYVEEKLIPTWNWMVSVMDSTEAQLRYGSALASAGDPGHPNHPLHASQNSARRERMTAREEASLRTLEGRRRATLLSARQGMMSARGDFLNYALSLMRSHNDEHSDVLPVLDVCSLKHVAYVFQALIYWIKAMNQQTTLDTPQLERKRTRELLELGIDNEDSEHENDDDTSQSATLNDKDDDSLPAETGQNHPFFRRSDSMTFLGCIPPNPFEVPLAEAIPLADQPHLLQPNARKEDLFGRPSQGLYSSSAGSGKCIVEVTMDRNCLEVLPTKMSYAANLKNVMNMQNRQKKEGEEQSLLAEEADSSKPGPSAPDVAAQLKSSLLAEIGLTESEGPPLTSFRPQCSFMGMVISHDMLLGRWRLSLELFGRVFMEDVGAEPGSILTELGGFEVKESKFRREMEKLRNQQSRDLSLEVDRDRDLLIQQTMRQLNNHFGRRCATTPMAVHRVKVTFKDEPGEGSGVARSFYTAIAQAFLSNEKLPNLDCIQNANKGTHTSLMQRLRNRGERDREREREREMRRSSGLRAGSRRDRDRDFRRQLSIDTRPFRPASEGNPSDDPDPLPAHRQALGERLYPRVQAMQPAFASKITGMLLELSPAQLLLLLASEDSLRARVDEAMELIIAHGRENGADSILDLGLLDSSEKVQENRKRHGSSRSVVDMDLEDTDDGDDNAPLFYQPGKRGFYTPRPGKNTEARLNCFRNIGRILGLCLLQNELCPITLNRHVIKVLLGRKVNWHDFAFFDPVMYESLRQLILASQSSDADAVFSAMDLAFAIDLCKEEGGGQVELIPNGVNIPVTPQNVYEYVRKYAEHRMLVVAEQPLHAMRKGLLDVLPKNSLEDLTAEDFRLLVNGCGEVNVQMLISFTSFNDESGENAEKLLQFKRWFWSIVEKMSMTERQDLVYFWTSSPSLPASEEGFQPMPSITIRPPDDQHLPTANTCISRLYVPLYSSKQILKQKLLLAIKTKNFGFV

molecular target: Dipeptidase-2 (DPEP2) (mouse (endogenous in BMDMs)) (UniProt Q8C255); assay: affinity purification with mass spectrometry; anti-DPEP2 antibodies (Proteintech) and Protein G beads on BMDM lysate; IgG antibodies as negative control; SDS/PAGE, silver staining, LC-MS/MS

binding | Molecule
binds | Ube2i (from UniProt P63280 1-158)
binds | MAP3K20 (from UniProt Q9ESL4 1-802)
binds | Egr2 (from UniProt P08152 1-470)
binds | Ubr5 (from UniProt Q80TP3 1-2792)

molecular target: Dipeptidase-2 (DPEP2) (mouse (endogenous in BMDMs)) (UniProt Q8C255); assay: as above; remark: another data set of the same source

Molecule | binding
Herc4 (protein, UniProt Q6PAV2 1-1057) MLCWGNASYGQLGLGGIDEEIVLEPRRSDFFVNKKVRDVGCGLRHTVFVLDDGTVYTCGCNDLGQLGHEKSRKKPEQVVALDAQNIVAVACGEAHTLALNDKGQVYAWGLDSDGQLGLQGSEECIRVPRNIKSLSDIQIVQVACGYYHSLALSKASEVFCWGQNKYGQLGLGIDCQKQTSPQLIKSLLGIPFMQVAAGGAHSFVLTLSGAIFGWGRNKFGQLGLNDENDRYVPNLLKSLRSQKIVYICCGEDHTAALTKEGGVFTFGAGGYGQLGHNSTSHEINPRKVFELMGSIVTQVACGRQHTSAFVPSSGRIYSFGLGGNGQLGTGSTSNRKSPFTVKGNWFSYNGQCPQDIGSEDYFCVKRIFSGGDQSFSHYSSPQNCGPPDDFRCSDPSKQIWTVNEALIQKWLSYPSGRFPVEIANEIDGTFSSSGCLNGSFLAISNDDHYRTGTRFSGVDMNAARLLFHKLIQPDHPQISQQVAASLEKNLIPKLTSSLPDVEALRFYLTLPECPLMSDCNNFTTIAIPFGTALVNLEKAPLKVLENWWSVLEPPLFLKIVELFKEVVVHLLKLYKIGIPPSERRIFNSFLHTALKVLEILHRVNEKTGQLIQYDKFYIHEVQELIDIRNDYINWVQQQAYGVDVSHGVTELADIPVTICTYPFVFDAQAKTTLLQTDAVLQMQMAIDQAHRQNVSSLFLPVIESVNPCLILVVRRENIVGDAMEVLRKTKNIDYKKPLKVIFVGEDAVDAGGVRKEFFLLIMRELLDPKYGMFRYYEDSRLIWFSDKTFEDSDLFHLIGVICGLAIYNFTIVDLHFPLALYKKLLKRKPSLDDLKELMPAVGRSMQQLLDYPEDDIEETFCLNFTITVENFGATEVKELVLNGADTAVNRQNRQEFVDAYVDYIFNKSVASLFDAFHAGFHKVCGGKVLLLFQPNELQAMVIGNTNYDWKELEKNTEYKGEYWADHPTIKIFWEVFHELPLEKKKQFLLFLTGSDRIPILGMKSLKLVIQSTGGGESYLPVSHTCFNLLDLPKYTEKETLRCKLIQAIDHNEGFSLI | binds
MAP3K3 (protein, UniProt Q61084 1-626) MDEQEALDSIMKDLVALQMSRRTRLSGYETMKNKDTGHPNRQSDVRIKFEHNGERRIIAFSRPVRYEDVEHKVTTVFGQPLDLHYMNNELSILLKNQDDLDKAIDILDRSSSMKSLRILLLSQDRNHTSSSPHSGVSRQVRIKPSQSAGDINTIYQAPEPRSRHLSVSSQNPGRSSPPPGYVPERQQHIARQGSYTSINSEGEFIPETSEQCMLDPLSSAENSLSGSCQSLDRSADSPSFRKSQMSRARSFPDNRKECSDRETQLYDKGVKGGTYPRRYHVSVHHKDYNDGRRTFPRIRRHQGNLFTLVPSSRSLSTNGENMGVAVQYLDPRGRLRSADSENALTVQERNVPTKSPSAPINWRRGKLLGQGAFGRVYLCYDVDTGRELASKQVQFDPDSPETSKEVSALECEIQLLKNLQHERIVQYYGCLRDRAEKILTIFMEYMPGGSVKDQLKAYGALTESVTRKYTRQILEGMSYLHSNMIVHRDIKGANILRDSAGNVKLGDFGASKRLQTICMSGTGIRSVTGTPYWMSPEVISGEGYGRKADVWSLGCTVVEMLTEKPPWAEYEAMAAIFKIATQPTNPQLPSHISEHGRDFLRRIFVEARQRPSAEELLTHHFAQLVY | binds
Dtx2 (protein, UniProt Q8R3P2 1-619) MAMAPSSSLPQVYPSHVVVAVWEWQDGLGIWHPYSATVCSFIEQHFVRQRGQHFGLGSLAHSIPLGQADPSLAPYIIDLPSWTQFRQNTGTMRSVRRHLFSQNSAPGQGIVWEWLGDDGSWVAYEARICDYLEQQVARGIQVVDLAPLGYNYTVNYATLTQTNKTSSFCRSVRRQVGPVYPVTSDIAVPRQMGLICFCQQCLHGSGTGPVSGRYRHSMTNLPAYPAPQAPHRTTTVSGAHQAFAPYNKPSLSGARSAPRLNTTNPWAAAPPVAGNQSLFHSSLSHLGPQLLPSGPSTSSGASASFPSGPSSSSPGSAPTTVPVQMPKASRVQQALAGMTSVLSAIGLPVCLSRAPRPTGPPASRPASKSHSSVKRLRKMSVKEGAPKPEPEQVIRKYTEELKVAPEEDCIICMEKLAVASGYSDMTDSKALGPMVVGRLTKCSHAFHLLCLLAMYCNGNKDGSLQCPSCKTIYGEKTGTQPWGKMEVFRFQMSLPGHEDCGTILIVYNIPHGIQGPEHPSPGKPFTARGFPRQCYLPDSPQGRKVLELLKVAWKRRLIFTVGTSSTTGETDTVVWNEIHHKTEMDRNVTGHGYPDPNYLQNVLAELAAQGVTEDCLEQQ | binds

The remaining lines, values ahead:

binding | Molecule
binds | MAP3K7 (protein, UniProt Q62073 1-579) MSTASAASSSSSSSASEMIEAPSQVLNFEEIDYKEIEVEEVVGRGAFGVVCKAKWRAKDVAIKQIESESERKAFIVELRQLSRVNHPNIVKLYGACLNPVCLVMEYAEGGSLYNVLHGAEPLPYYTAAHAMSWCLQCSQGVAYLHSMQPKALIHRDLKPPNLLLVAGGTVLKICDFGTACDIQTHMTNNKGSAAWMAPEVFEGSNYSEKCDVFSWGIILWEVITRRKPFDEIGGPAFRIMWAVHNGTRPPLIKNLPKPIESLMTRCWSKDPSQRPSMEEIVKIMTHLMRYFPGADEPLQYPCQYSDEGQSNSATSTGSFMDIASTNTSNKSDTNMEQVPATNDTIKRLESKLLKNQAKQQSESGRLSLGASRGSSVESLPPTSEGKRMSADMSEIEARIVATAGNGQPRRRSIQDLTVTGTEPGQVSSRSSSPSVRMITTSGPTSEKPARSHPWTPDDSTDTNGSDNSIPMAYLTLDHQLQPLAPCPNSKESMAVFEQHCKMAQEYMKVQTEIALLLQRKQELVAELDQDEKDQQNTSRLVQEHKKLLDENKSLSTYYQQCKKQLEVIRSQQQKRQGTS
binds | Rmnd5a (protein, UniProt Q80YQ8 1-391) MDQCVTVERELEKVLHKFSGYGQLCERGLEELIDYTGGLKHEILQSHGQDAELSGTLSLVLTQCCKRIKDTVQKLASDHKDIHSSVSRVGKAIDKNFDSDISSVGIDGCWQADSQRLLNEVMVEHFFRQGMLDVAEELCQESGLSVDPSQKEPFVELNRILEALKVRVLRPALEWAVSNREMLIAQNSSLEFKLHRLYFISLLMGGTTNQREALQYAKNFQPFALNHQKDIQVLMGSLVYLRQGIENSPYVHLLDANQWADICDIFTRDACALLGLSVESPLSVSFSAGCVALPALINIKAVIEQRQCTGVWNQKDELPIEVDLGKKCWYHSIFACPILRQQTTDNNPPMKLVCGHIISRDALNKMFNGSKLKCPYCPMEQSPGDAKQIFF
binds | Znf598 (protein, UniProt Q80YR4 1-908) MAAAAGAEGRRAALEAVAAPERGGGSCVLCCGDLEATALGRCDHPVCYRCSTKMRVLCEQRYCAVCREELRQVVFGKKLPAFALIPIHQLQHEKKYDIYFADGKVFALYRQLLQHECPRCPHLPPFSLFGDLEQHMRKQHELFCCKLCLKHLKIFTYERKWYSRKDLARHRMQGDPDDTSHRGHPLCKFCDERYLDNDELLKHLRRDHYFCHFCDSDGAQDYYSDYAYLREHFREKHFLCEEGRCSTEQFTHAFRTEIDLKAHKTACHSRSRAEARQNRQIDLQFSFAPRHSRRSEGVVSGEDYEEVDRYNRQGRAGRASGRGAQQNRRGSWRYKREEEDREVAAAIRASVAAQQQEETQRVEDREEGSRPKKEEAAARVPEEPRGHRRLPRAQGEGSGSKEASANGPVSQEAFPATGPGPVVALSNTLPPPSPELKEEDFPSLCASTSSCCTAVTPGSVGLALAYPGPPRGKNTFQEEDFPALVSSAPKPSSAPSSLISAWNSGCSKKGNLPTPGSQAVVGGSQPPRKAGKGSRGGRKGGPAPVDEEDSGGLTVQGLRSVPTTVAVSSLLAPATNQSSAKVGKKKKVGSEKPGATSSPLLPPDHTPKPSGAEQVLEAPLSKAEVPVTIVVNGHSEGSALVRSAPKEPPGLPRPLGPLPCPIPQEDFPALGGPCPPRMPPPPGFSTVVLLKGTPPPPPPPPGLVPPISKPPPGFSSLLPSSHSACAPSPTTTTTTTTTTKTPGLAPTPQAYLVPENFRERNLQLIQSIKDFLQSDEACFSKFKSHSGEFRQGMISAAQYYKSCRDLLGESFQKIFSELLALLPDTAKQQELLSAHTDFCSREKPPNSRSKRNKKNVWQTSTQQLGLDCCVCPTCQQVLAHGDVSSHQALHAARDDDFPSLQAIARIIT

No constants are given. Whether binding was seen depends on the method and setting. Binding seen in cells or lysates may run through a third protein. These calls come from enrichment with a bait or labelling near it, and not all partners need be listed.
